Data published in article PMC7819943, “Rice protein-binding microarrays: a tool to detect cis-acting elements near promoter regions in rice”.
This is one part of the list.

target: T1, OsSMF1 (Oryza sativa, UniProt Q6ZLB0 1-436); experiment: protein-binding microarray (RPBM); PBS, 2% BSA, 51.3 ng/ul salmon testes DNA, 50 uM zinc acetate, 200 nM TF, 25 C, 1 h; high values mean tight binding; conditions: protein: recombinant; tags: N-terminal polyhistidine and DsRed monomer fusion (pET32a); chain copies: 2; label: CyDye5-dUTP incorporated in the synthesized complementary strand; 3' TTTTT single-stranded linker to array surface; dsDNA, one strand shown
T1 sequence: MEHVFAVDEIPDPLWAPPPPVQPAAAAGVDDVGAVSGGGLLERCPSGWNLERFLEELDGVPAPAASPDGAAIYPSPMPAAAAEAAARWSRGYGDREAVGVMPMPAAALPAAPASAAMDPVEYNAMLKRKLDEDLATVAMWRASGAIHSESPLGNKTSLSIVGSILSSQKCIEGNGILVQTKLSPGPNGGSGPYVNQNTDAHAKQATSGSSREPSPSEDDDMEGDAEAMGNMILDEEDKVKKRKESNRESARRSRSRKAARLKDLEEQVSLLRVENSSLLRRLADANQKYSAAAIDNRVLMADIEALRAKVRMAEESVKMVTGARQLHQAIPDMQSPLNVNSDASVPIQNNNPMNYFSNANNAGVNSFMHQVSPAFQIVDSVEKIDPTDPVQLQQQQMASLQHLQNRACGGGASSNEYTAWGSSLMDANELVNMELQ
How it was run: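 Binding signal here means per-feature fluorescence intensity in arbitrary units. The values were read on an Axon 4000B scanner after a custom Agilent array, double-stranded by primer extension with Cy5-dUTP, was incubated with 200 nM protein at 25 °C for 1 h in PBS with 2% BSA, salmon testes DNA and 50 µM zinc acetate, then washed. The proteins were transcription factors with an N-terminal polyhistidine tag and DsRed, expressed in E. coli BL21-CodonPlus and purified on Ni–NTA.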

Sequence	binding signal
TAAAGGGACTGTTCACTTTGATGTCATTTTCAACCTTACCCGGAGTCACCTAGTGCAG	3380 fluorescence intensity (a.u.)
TTGGCTGCTGCGACGACGGAGGTGGAGGCTCTGTGCGTCACGGAGTCACCTAGTGCAG	3790 fluorescence intensity (a.u.)
CACTCAGCTGAGCTGCTCAATACACACGCCAGCATGCTGCCGGAGTCACCTAGTGCAG	5020 fluorescence intensity (a.u.)
AACGCTCCCAAGCTACCACGTGGCCTCCTACAAACTCTCACGGAGTCACCTAGTGCAG	3920 fluorescence intensity (a.u.)
GGCGGCCACGGGCTCCGGCGGAGGGCGGCGTGGTGGCGGCCGGAGTCACCTAGTGCAG	14400 fluorescence intensity (a.u.)
AAGTTCACAGTGCTGACCACGGTCAAGGTGCCACGTCATCCGGAGTCACCTAGTGCAG	35200 fluorescence intensity (a.u.)
CTGCCGGTGGACGGCGGCGGAGAGCTGACTAGCCGAGCCGCGGAGTCACCTAGTGCAG	3520 fluorescence intensity (a.u.)
CGGGGACGGGTGGAATTTTCAACCCGCGAGGAGTCGGGGTCGGAGTCACCTAGTGCAG	30500 fluorescence intensity (a.u.)
GAACTGTCACCCAGAGATCGTTGTTTGTCGGGTGAGGTGTCGGAGTCACCTAGTGCAG	3140 fluorescence intensity (a.u.)
TGGCGGCAGTTGGAGCTGGAGGAAGGGGATGACAGGTGGGCGGAGTCACCTAGTGCAG	3960 fluorescence intensity (a.u.)
TCACAGGTGGTATAGTATTTCCAAGTGACATCAGTAGCCACGGAGTCACCTAGTGCAG	3190 fluorescence intensity (a.u.)
TCTCTTTTGGCTGCCTGTCACGTGGGCCCCACCGTCACCGCGGAGTCACCTAGTGCAG	3660 fluorescence intensity (a.u.)
AGCCACACATATGTTGACATGCGGCATAATCATAGAGGTTCGGAGTCACCTAGTGCAG	3800 fluorescence intensity (a.u.)
CTAAAACAGGCGAGTAGGATATACTACCTTCAATTATATTCGGAGTCACCTAGTGCAG	40600 fluorescence intensity (a.u.)
GACGATGTCGGTGATCCAGCCAATAGCAGTGTAGCAACCACGGAGTCACCTAGTGCAG	3250 fluorescence intensity (a.u.)
AAAAGGAATTGGAGACATAGTAGTGAGATAGCACGTCACTCGGAGTCACCTAGTGCAG	4480 fluorescence intensity (a.u.)
CCGGAGAGGTGGAGGTGGATCGGTGACCATCGTGGTTAGGCGGAGTCACCTAGTGCAG	3420 fluorescence intensity (a.u.)
ATGTAATACCCGATGTGATACAGCAAAACTTTACCCTCAGCGGAGTCACCTAGTGCAG	3430 fluorescence intensity (a.u.)
TTTGCCATGTCAATCTTCTGTTTTCACATAGCTTCACCGACGGAGTCACCTAGTGCAG	4460 fluorescence intensity (a.u.)
ACCTAGATGACATCACTAATTCTAAACTTTAATCTCTATTCGGAGTCACCTAGTGCAG	4200 fluorescence intensity (a.u.)
GGCTCGATTCGCGACGGCGGAGGTCGATGCGTGGCGGCGGCGGAGTCACCTAGTGCAG	4470 fluorescence intensity (a.u.)
TTTCTTAGATCGAATTGCCACGTCAATGACACGTTAGATGCGGAGTCACCTAGTGCAG	27900 fluorescence intensity (a.u.)
GGCTGGAGGTGTTCAGGGACAACGTGGCGTTCATCGAGTCCGGAGTCACCTAGTGCAG	5820 fluorescence intensity (a.u.)
CTGATCAGTCATGATGCATTGTGGCTCTTTTCCATCCATTCGGAGTCACCTAGTGCAG	4200 fluorescence intensity (a.u.)
AGAACCGAATTAATTTGGGGTTAAATAAATGACTAAGCAGCGGAGTCACCTAGTGCAG	3970 fluorescence intensity (a.u.)
AATGTCATAGTACCAGCATTACGTGCAAGTGTGCAACATGCGGAGTCACCTAGTGCAG	3160 fluorescence intensity (a.u.)
GGGGCGATGTCGTGCGCGATGGACGCGTCAGCGTCACCTCCGGAGTCACCTAGTGCAG	8420 fluorescence intensity (a.u.)

An excerpt taken from the entries so far:
Sequence	binding signal
CACTCAGCTGAGCTGCTCAATACACACGCCAGCATGCTGCCGGAGTCACCTAGTGCAG	5020 fluorescence intensity (a.u.)
AACGCTCCCAAGCTACCACGTGGCCTCCTACAAACTCTCACGGAGTCACCTAGTGCAG	3920 fluorescence intensity (a.u.)
GGCGGCCACGGGCTCCGGCGGAGGGCGGCGTGGTGGCGGCCGGAGTCACCTAGTGCAG	14400 fluorescence intensity (a.u.)

Next part.

Sequence	binding signal
GTTTTGTCCTGATGCATGATGAACAGCCCATCATCAACGGCGGAGTCACCTAGTGCAG	3520 fluorescence intensity (a.u.)
ACCGATGATCGGTCCATCCGTGCTTTTCGGTTCTAACACCCGGAGTCACCTAGTGCAG	3640 fluorescence intensity (a.u.)
CGGAAAATCCCTCGAGCACATGTGAAACTTCCCCGTGATCCGGAGTCACCTAGTGCAG	3470 fluorescence intensity (a.u.)
GTGCATGTCGCATTGTCATTAGCTGTCTTAGCTACTGATGCGGAGTCACCTAGTGCAG	3560 fluorescence intensity (a.u.)
CGTGCCGCCTCACCTCCTCCCTCCCACGCACCGCCTCACCCGGAGTCACCTAGTGCAG	3330 fluorescence intensity (a.u.)
TTGACGAGCCTTTTGGCCAACTCGAGAGTGACGTCAGCGCCGGAGTCACCTAGTGCAG	33200 fluorescence intensity (a.u.)
GCCAGCCCATTGATGAGTCAGCAAAGGATCAGATCGTGAGCGGAGTCACCTAGTGCAG	14500 fluorescence intensity (a.u.)
TTATCACTCTTGTCATAAATTAAGCTGCAAGAATCAGATGCGGAGTCACCTAGTGCAG	3340 fluorescence intensity (a.u.)
CCACCTCCACCGCACGGAAACCCTCGCCCGGCGTGGATTCCGGAGTCACCTAGTGCAG	3250 fluorescence intensity (a.u.)
GTTAGAAAACGATATATATATAAGTAGATATCACAACATGCGGAGTCACCTAGTGCAG	3890 fluorescence intensity (a.u.)
TCTAAATATAAGTGACTAGGCATTGGACAGCCCCGTCGTTCGGAGTCACCTAGTGCAG	11000 fluorescence intensity (a.u.)
TCCAGATGTTGGCTAATTCTAAGGTTTGACACGTCCTCTGCGGAGTCACCTAGTGCAG	10200 fluorescence intensity (a.u.)
CCACCACTGTGGCGCCTGACACAGCTCACACCTTTGACGACGGAGTCACCTAGTGCAG	36700 fluorescence intensity (a.u.)
TTTTCATTTGCTTATGCTGTTGATGACGAGGACGCAACGTCGGAGTCACCTAGTGCAG	6910 fluorescence intensity (a.u.)
TCCAGCGCCTTCGTCTTCTTCGACCTCCTCCTCCGAAGGCCGGAGTCACCTAGTGCAG	19300 fluorescence intensity (a.u.)
GGCCGGAGTGGATGGGGATTCGAGCGTGTGTGTGAGAGAGCGGAGTCACCTAGTGCAG	3740 fluorescence intensity (a.u.)
ACTCTACCAACCACATCAGAGTTAGTTCATCTCCTCCTTGCGGAGTCACCTAGTGCAG	3260 fluorescence intensity (a.u.)
CCACCTCTCTCTCTCTCTCTCCCACGCCACGCCACGCCACCGGAGTCACCTAGTGCAG	3700 fluorescence intensity (a.u.)
TCATGGCAGTTGAACAAGAACAGTCATCTGGGCAACATCCCGGAGTCACCTAGTGCAG	3260 fluorescence intensity (a.u.)
ATAGAAAGTCCGGTACATGTCTCGCTCCGGTTGGTATACGCGGAGTCACCTAGTGCAG	30100 fluorescence intensity (a.u.)
AATCATAAAGTTGGTGTTTTCCTCGGTGTCGATAGTGCTCCGGAGTCACCTAGTGCAG	20700 fluorescence intensity (a.u.)
TTCTTTGTGTTTGTGTGACTTGTACGTGTCAGCCAGCCACCGGAGTCACCTAGTGCAG	5900 fluorescence intensity (a.u.)
ACGCCACCGTCGTCGGCTACTACGCTCCACGCAGGGATGCCGGAGTCACCTAGTGCAG	3670 fluorescence intensity (a.u.)
GCCATCAGGGGAATGTACAGTGACGTCCTCGCGCTCGCGGCGGAGTCACCTAGTGCAG	4300 fluorescence intensity (a.u.)
CTGGACATGATCGGCACGATGACGCTAATCCACGCTGAGCCGGAGTCACCTAGTGCAG	3680 fluorescence intensity (a.u.)
GGGTGGCCGGGGAAGGAGATGGTGACGTCGGGCAGCACTCCGGAGTCACCTAGTGCAG	3930 fluorescence intensity (a.u.)
GGTGGTCGGGGCTCTGACGCGGCGGGGCGGCGGAGGTGGTCGGAGTCACCTAGTGCAG	5430 fluorescence intensity (a.u.)
